system: HEK 293T cells; conditions: this screen, qHTS curve class

Structure (SMILES)	Curve Class (HEK 293T toxicity)
O=C(CCCCCCC(=O)Nc1ccccc1)NO [Vorinostat]	−1.93
Cc1[nH]c2ccccc2c1CCNCc1ccc(/C=C/C(=O)NO)cc1 [Panobinostat]	−1.17
COc1cc(N2CCC(N3CCN(C)CC3)CC2)ccc1Nc1ncc(Cl)c(Nc2ccccc2S(=O)(=O)C(C)C)n1 [NVP-TAE684]	−2.1
COc1ccc(-c2ccc3ncc4c(c3c2)n(-c2ccc(N3CCNCC3)c(C(F)(F)F)c2)c(=O)n4C)cn1 [NVP-BGT226]	−1.1
CCN(CC)Cc1ccc2cc(COC(=O)Nc3ccc(C(=O)NO)cc3)ccc2c1 [Givinostat]	−1.17
Cc1csc(NC(=O)CSc2nc3c(c(C(F)(F)F)c2C#N)CCC3)n1 [Irestatin 9389]	−1.1
